# In PubChem BioAssay AID2685 (National Center for Advancing Translational Sciences (NCATS), 2010):
# This is one part of the list. Shown are side measurements of this screen, not its main read-out; they come without a call. Compounds called inactive in the main read-out are mostly missing here. Potencies come from curve fits of mixed quality, noted in brackets.
# Experiment: qHTS Assay for Lipid Storage Modulators in Drosophila S3 Cells;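 as to cell number change: cells counted by Cell Tracker Red CMTPX staining in the red channel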
# Details: BODIPY lipid droplet fluorescence, 18-24 h; for cell number change: measured here: cell count max response, cells fed with added oleic acid
# In short: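 Laser-scanning cytometry quantifies lipid droplet accumulation (500–530 nm total intensity; droplet/cell object ratio) in oleic acid-fed (400 uM added) Drosophila S3 cells treated with a concentration series. 20 uM Triacsin C defined 100% inhibition.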
# [1] = measured here: cell number channel AC50, cells fed with added oleic acid
# [2] = measured here: lipid fluorescence (Fed channel) AC50, cells fed with added oleic acid
Structure (SMILES),cell number change [%],AC50 [1],AC50 [2]
CN(C(=O)C1CCC1C(=O)O)c1nc(-c2ccc(Cl)s2)cs1 (stereo unspecified),-45.7,"29.1 µM [falling, single point]","29.1 µM [falling, single point]"
COc1ccc(C(C)NC(=O)Cc2cccs2)cc1 (stereo unspecified),-17.3,"0.82 µM [falling, full curve, poor fit]",
CCOc1ccc(NC(=O)COC(=O)COc2cccc3c2OC(C)(C)C3)cc1,1.62,,
Cn1c(=O)c(=O)n(C)c2cc(N3CCOCC3)c(NS(=O)(=O)c3ccc(F)c(Cl)c3)cc21,,,"0.58 µM [rising, single point]"
Cc1cc(NC(=O)CSc2nc(C(C)C)nc3sc(C)c(C)c23)no1,-3.04,,"0.146 µM [rising, full curve]"
O=C(CSc1nnc(-c2cnccn2)n1Cc1ccco1)c1ccc2ccccc2c1,3.81,,"0.082 µM [rising, full curve, poor fit]"
Cc1ccc(CNC(=O)C2CCC(CNc3nc(=S)[nH]c4ccccc34)CC2)cc1 (stereo unspecified),,,"3.66 µM [rising, partial curve, poor fit]"
COc1ccc(NS(=O)(=O)c2ccc3oc(Nc4ccc5c(c4)OCCO5)nc3c2)cc1,90.2,"10.3 µM [rising, partial curve]",
COc1ccc(NC(=O)Cn2c(=O)oc3cc(S(=O)(=O)N4CCCC4)ccc32)cc1,8.68,,
O=C(Nc1cccc(F)c1)c1ccc(-c2ccccc2C(F)(F)F)o1,41.6,"14.6 µM [rising, partial curve, poor fit]","7.31 µM [rising, partial curve]"
COc1ccc(S(=O)(=O)N2CCOC2CNC(=O)C(=O)NCCCc2ccccc2)cc1 (stereo unspecified),-11.2,,
CCCc1cc(C(=O)Nc2cc(Br)ccc2O)no1,-4.5,,"11.6 µM [falling, partial curve]"
Cc1n[nH]c(C)c1S(=O)(=O)N1CCCC(C(=O)NCc2ccccc2Cl)C1 (stereo unspecified),16.8,,"6.51 µM [rising, single point]"
CCOC(=O)c1c(NC(=O)CSc2nc3ccccc3c(=O)n2-c2ccccc2)sc(C(C)=O)c1C,21.9,,"7.31 µM [rising, partial curve, poor fit]"
O=C(O)c1[nH]c2ccc(Cl)cc2c1CC(=O)N1CCN(C(=O)c2ccco2)CC1,-42.4,"18.4 µM [falling, single point]","20.6 µM [falling, single point]"
O=C(CSC1=NCCN1)NC12CC3CC(CC(C3)C1)C2,-25.7,,"5.8 µM [falling, full curve]"
OCc1csc(=Nc2ccccc2)n1-c1ccccc1,-9.26,,"0.231 µM [falling, full curve, poor fit]"
NC(=O)CC(NC(=O)c1ccccc1)c1ccc(NC2CCN(Cc3ccccc3)CC2)c([N+](=O)[O-])c1 (stereo unspecified),9.58,,
COc1ccc(S(=O)(=O)N2CCCCCC2)cc1C(=O)N1CCCC(C(F)(F)F)C1 (stereo unspecified),40.2,"4.11 µM [rising, full curve, poor fit]",
Cc1ccc(-n2nc3c(c2NC(=O)c2ccc(F)c(F)c2)CS(=O)(=O)C3)cc1,-13.4,,"29.1 µM [falling, single point]"
O=C(O)CC(c1ccc(F)cc1F)N1Cc2ccccc2C1=O (stereo unspecified),-22.4,,"11.6 µM [falling, partial curve]"

Structure (SMILES),cell number change [%],AC50 [1],AC50 [2]
Cc1ccc(NC(=O)CCC(=O)c2cccs2)cc1F,8.97,,"29.1 µM [rising, single point]"
CC1CCN(C(=O)CNC(=O)CNS(=O)(=O)c2ccccc2)CC1,29.4,,
Cc1onc(-c2ccccc2Cl)c1C(=O)N1CCN(Cc2ccc3c(c2)OCO3)CC1,-35.5,"14.6 µM [falling, partial curve]","23.1 µM [falling, partial curve, poor fit]"
CSc1ccc(C(=O)C2CCCN(C(=O)Cn3cnnn3)C2)cc1 (stereo unspecified),17.5,,"25.1 µM [rising, single point]"
Fc1cccc(Cl)c1CSc1ccc2nnc(-c3ccccn3)n2n1,1.23,,
Cc1ccccc1NC(=O)C(NC1CCCCC1)C(C)C (stereo unspecified),19.1,,"0.0651 µM [rising, full curve, poor fit]"
CC(=O)Nc1ccc(NC(=O)c2ccc(CSc3ccccc3)o2)cc1,18,,"8.2 µM [rising, partial curve, poor fit]"
Cc1cc(C)cc(-n2ccnc2SCC(=O)Nc2ccc3c(c2)OCCO3)c1,,"2.06 µM [rising, partial curve]",
O=C1CCN(CCc2ccccc2)CCN1[C@H](CO)c1ccccc1,0.299,,
Cc1cc2[nH]c(=O)c(=O)[nH]c2cc1S(=O)(=O)N1CCN(c2cccc(C)c2C)CC1,33.7,"32.6 µM [rising, single point]","11.6 µM [falling, partial curve]"
CCCCNC(=S)NCc1ccc2[nH]c(C)cc2c1,-20.8,,"8.2 µM [rising, partial curve]"
Nc1ccc2oc(=O)c3ccccc3c2c1,-34.2,"29.1 µM [falling, single point]",
O=C(O)CSc1nnc(-c2ccc(Cl)cc2Cl)n1-c1ccc(Cl)cc1,19.3,,
N#Cc1c(C(F)(F)F)cc(-c2ccccc2)[nH]c1=O,-1.15,,
COc1ccc(OCC(=O)Nc2ccc(S(=O)(=O)N3CCCCC3)cc2)cc1,-32.9,"20.6 µM [falling, single point]",
Clc1ccc(Cl)c(OCCN2CCCC2)c1,18.2,,
Cc1ccc(NC(=O)c2nnn(-c3ccc4c(c3)OCCO4)c2N)cc1,-12.8,,
COc1ccccc1-c1nnc(SCC(=O)Nc2cc(C)on2)o1,46.6,"29.1 µM [rising, single point]","20.6 µM [rising, single point]"
Cc1nonc1CC(=O)N1CCc2c([nH]c3ccccc23)C1c1ccccc1F (stereo unspecified),3.75,,"0.116 µM [falling, full curve, poor fit]"
Brc1ccccc1C1N=C(c2ccccc2)NO1 (stereo unspecified),0.451,,"6.51 µM [falling, single point]"
OCCC1CN(Cc2ccc3c(c2)CCO3)CCN1C1CCCC1 (stereo unspecified),31.5,,

# Limited to AC50 [2] and AC50 [1], for 3 of the compounds above:
Structure (SMILES) | AC50 [2] | AC50 [1]
Cc1ccccc1NC(=O)C(NC1CCCCC1)C(C)C (stereo unspecified) | 0.0651 µM [rising, full curve, poor fit] | 
CC(=O)Nc1ccc(NC(=O)c2ccc(CSc3ccccc3)o2)cc1 | 8.2 µM [rising, partial curve, poor fit] | 
Cc1cc(C)cc(-n2ccnc2SCC(=O)Nc2ccc3c(c2)OCCO3)c1 |  | 2.06 µM [rising, partial curve]

# Another view of 2 compounds above.
Structure (SMILES)	cell number change [%]	AC50 [1]	AC50 [2]
CSc1ccc(C(=O)C2CCCN(C(=O)Cn3cnnn3)C2)cc1 (stereo unspecified)	17.5		25.1 µM [rising, single point]
Cc1cc2[nH]c(=O)c(=O)[nH]c2cc1S(=O)(=O)N1CCN(c2cccc(C)c2C)CC1	33.7	32.6 µM [rising, single point]	11.6 µM [falling, partial curve]

# Later entries.

Structure (SMILES),cell number change [%],AC50 [1],AC50 [2]
C=CCn1c(SC(C)C(=O)Nc2ccc(F)c(F)c2F)nnc1C1CC1 (stereo unspecified),27,,
Cc1ccc(S(=O)(=O)NCC(=O)N(CC(=O)NC2CCCC2)c2ccc3c(c2)OCCO3)cc1,-1.18,"0.82 µM [rising, single point]",
O=C(/C=C/c1ccc(O)c(O)c1)c1ccccc1O,1.36,,"29.1 µM [falling, single point]"
Cc1c([N+](=O)[O-])nnn1-c1cc(Cl)cc(Cl)c1,0.797,"1.03 µM [falling, full curve]","0.731 µM [falling, partial curve, poor fit]"
Cc1nc(-c2c(-c3ccc(O)cc3O)noc2C(F)(F)F)cs1,-8.2,,"25.9 µM [rising, single point]"
COc1ccc(-c2[nH]ncc2CN(C)C(C)c2ccon2)cc1F (stereo unspecified),-14,,"29.1 µM [falling, single point]"
Cn1c(NC(=O)c2ccc(C(C)(C)C)cc2)cc(=O)n(C)c1=O,64.9,"18.4 µM [rising, single point]","16.4 µM [rising, partial curve]"
CCCCn1c(N)c(N(CC(C)C)C(=O)C2CCN(S(=O)(=O)c3ccc(C)cc3C)CC2)c(=O)[nH]c1=O,-50,"0.92 µM [falling, full curve]",
Cn1c(=O)c2cc(S(=O)(=O)NCCC(=O)NC3CCCCCCC3)ccc2n(C)c1=O,-9.12,,
Cc1ccc(C2CC(c3cccc(C)c3)n3ncnc3N2)cc1 (stereo unspecified),36.6,"32.6 µM [rising, single point]","20.6 µM [rising, partial curve]"
O=C(CN(C(=O)c1csnn1)c1ccccc1F)NCc1ccccc1,6.67,,
COc1ccc(Cl)cc1NC(=O)CN(C)C(=O)CN1C(=O)NC2(CCCC2)C1=O,-50,"29.1 µM [falling, single point]","29.1 µM [rising, single point]"
CC(C(=O)O)N1C(=O)CSC1=S (stereo unspecified),-35.3,"1.03 µM [falling, full curve]","29.1 µM [falling, single point]"
Cc1ccc(CN2C(=O)C(Cc3ccccc3)Nc3ncnc(N4CCCCC4)c32)cc1 (stereo unspecified),4.95,"6.51 µM [falling, single point]",
COc1cc(Cl)c(C)cc1NC(=O)c1ccc(NS(=O)(=O)c2ccc(F)c(F)c2)cc1,-9.54,"0.00461 µM [rising, full curve, poor fit]","29.1 µM [falling, single point]"
Cc1cc(-c2ccco2)n(CC(=O)NCCN(C)C)n1,-8.41,,"7.31 µM [rising, full curve, poor fit]"
CCNC(=O)CN(c1ccccc1)S(=O)(=O)c1ccc(Cl)cc1,,,"0.651 µM [falling, single point]"
Cc1nn(-c2ccccc2)c(N2CCCC2)c1/C=N/NC(=O)c1cccc(S(=O)(=O)Nc2ccc(Cl)cc2)c1,-22,"0.651 µM [rising, single point]","0.731 µM [rising, single point]"
CC(C)Cc1cc(CNC(=O)C2CCC(=O)N(Cc3cccc(C(F)(F)F)c3)C2)on1 (stereo unspecified),24.1,,"29.1 µM [falling, single point]"
